Measurements from PMC10073124.

Biological target: T1, Four and a half LIM domains 2 (FHL2) (mouse (endogenous in primary granulosa cells)) (UniProt O70433)
T1 sequence: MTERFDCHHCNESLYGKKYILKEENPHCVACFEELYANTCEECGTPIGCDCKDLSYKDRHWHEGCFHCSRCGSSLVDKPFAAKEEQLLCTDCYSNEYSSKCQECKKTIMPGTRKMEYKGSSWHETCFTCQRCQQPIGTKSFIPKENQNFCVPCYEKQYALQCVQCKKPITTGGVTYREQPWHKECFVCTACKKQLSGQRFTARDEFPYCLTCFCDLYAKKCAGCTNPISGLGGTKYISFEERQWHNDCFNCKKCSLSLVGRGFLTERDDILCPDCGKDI
Test: co-IP; granulosa cell lysates incubated overnight with rabbit anti-FHL2 antibody or normal rabbit IgG; protein A/G agarose beads, 30 min at 4 °C; five washes with cell lysis buffer; western blot with anti-NF-κB and anti-AP-1 antibodies

Question: How did the binding turn out when NF-κB transcription factor was run?
Answer: binds

These are yes or no findings as the source states them, for the method shown. In cells and extracts the contact can be indirect. Binding calls can cover weak binding; strength is not graded here.
